From doi:10.1101/2023.02.03.526950
No constants are given. Whether binding was seen depends on the method and setting. In cells and extracts the contact can be indirect. Some entries that bind do so weakly or less than the wild type.

The chains behind the UniProt entries cited, without tags or fusion partners.
UniProt O43294: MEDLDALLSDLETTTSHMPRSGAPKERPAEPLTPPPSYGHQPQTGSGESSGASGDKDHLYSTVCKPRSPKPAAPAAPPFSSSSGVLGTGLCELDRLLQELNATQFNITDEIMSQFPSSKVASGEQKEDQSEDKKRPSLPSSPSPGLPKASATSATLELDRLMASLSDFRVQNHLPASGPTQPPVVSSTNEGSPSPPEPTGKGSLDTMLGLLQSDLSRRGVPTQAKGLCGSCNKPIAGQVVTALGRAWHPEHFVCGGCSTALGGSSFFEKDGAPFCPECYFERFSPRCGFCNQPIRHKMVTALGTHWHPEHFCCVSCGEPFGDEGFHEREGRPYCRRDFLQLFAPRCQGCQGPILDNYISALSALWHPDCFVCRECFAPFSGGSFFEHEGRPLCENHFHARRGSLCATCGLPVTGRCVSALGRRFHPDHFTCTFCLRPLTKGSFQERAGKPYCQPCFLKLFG

Experiments:
[1] = biological target: T1, ULK2, expressed in HEK293T cells (UniProt Q8IYT8); test: co-IP
T1 sequence: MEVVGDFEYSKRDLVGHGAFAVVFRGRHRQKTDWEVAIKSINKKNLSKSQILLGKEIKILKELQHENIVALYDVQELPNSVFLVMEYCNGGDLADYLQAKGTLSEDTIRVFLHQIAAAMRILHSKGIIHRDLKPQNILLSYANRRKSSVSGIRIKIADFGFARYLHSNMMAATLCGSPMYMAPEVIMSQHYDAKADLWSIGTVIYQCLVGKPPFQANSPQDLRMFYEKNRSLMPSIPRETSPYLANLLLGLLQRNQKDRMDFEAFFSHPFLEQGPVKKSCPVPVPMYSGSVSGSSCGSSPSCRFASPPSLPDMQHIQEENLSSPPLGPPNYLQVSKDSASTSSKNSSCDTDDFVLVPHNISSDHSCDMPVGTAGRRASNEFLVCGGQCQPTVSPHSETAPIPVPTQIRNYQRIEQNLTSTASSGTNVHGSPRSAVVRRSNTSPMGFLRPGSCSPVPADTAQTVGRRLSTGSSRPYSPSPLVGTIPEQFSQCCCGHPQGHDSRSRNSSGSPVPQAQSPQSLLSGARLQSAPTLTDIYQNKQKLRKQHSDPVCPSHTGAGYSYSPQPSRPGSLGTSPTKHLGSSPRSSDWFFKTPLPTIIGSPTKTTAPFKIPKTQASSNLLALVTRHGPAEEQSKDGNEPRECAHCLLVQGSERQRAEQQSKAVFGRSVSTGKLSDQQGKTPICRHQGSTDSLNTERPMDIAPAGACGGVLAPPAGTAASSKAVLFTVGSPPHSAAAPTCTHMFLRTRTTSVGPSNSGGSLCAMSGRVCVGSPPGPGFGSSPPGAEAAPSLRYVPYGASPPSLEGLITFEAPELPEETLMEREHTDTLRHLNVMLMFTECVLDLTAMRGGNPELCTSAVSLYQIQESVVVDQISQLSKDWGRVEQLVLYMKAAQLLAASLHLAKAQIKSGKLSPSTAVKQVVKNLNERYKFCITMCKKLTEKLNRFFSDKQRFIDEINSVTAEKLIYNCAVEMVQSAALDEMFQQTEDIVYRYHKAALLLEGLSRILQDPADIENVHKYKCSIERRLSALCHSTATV

[2] = biological target: T2, ULK1, expressed in HEK293T cells (UniProt O75385); test: co-IP
T2 sequence: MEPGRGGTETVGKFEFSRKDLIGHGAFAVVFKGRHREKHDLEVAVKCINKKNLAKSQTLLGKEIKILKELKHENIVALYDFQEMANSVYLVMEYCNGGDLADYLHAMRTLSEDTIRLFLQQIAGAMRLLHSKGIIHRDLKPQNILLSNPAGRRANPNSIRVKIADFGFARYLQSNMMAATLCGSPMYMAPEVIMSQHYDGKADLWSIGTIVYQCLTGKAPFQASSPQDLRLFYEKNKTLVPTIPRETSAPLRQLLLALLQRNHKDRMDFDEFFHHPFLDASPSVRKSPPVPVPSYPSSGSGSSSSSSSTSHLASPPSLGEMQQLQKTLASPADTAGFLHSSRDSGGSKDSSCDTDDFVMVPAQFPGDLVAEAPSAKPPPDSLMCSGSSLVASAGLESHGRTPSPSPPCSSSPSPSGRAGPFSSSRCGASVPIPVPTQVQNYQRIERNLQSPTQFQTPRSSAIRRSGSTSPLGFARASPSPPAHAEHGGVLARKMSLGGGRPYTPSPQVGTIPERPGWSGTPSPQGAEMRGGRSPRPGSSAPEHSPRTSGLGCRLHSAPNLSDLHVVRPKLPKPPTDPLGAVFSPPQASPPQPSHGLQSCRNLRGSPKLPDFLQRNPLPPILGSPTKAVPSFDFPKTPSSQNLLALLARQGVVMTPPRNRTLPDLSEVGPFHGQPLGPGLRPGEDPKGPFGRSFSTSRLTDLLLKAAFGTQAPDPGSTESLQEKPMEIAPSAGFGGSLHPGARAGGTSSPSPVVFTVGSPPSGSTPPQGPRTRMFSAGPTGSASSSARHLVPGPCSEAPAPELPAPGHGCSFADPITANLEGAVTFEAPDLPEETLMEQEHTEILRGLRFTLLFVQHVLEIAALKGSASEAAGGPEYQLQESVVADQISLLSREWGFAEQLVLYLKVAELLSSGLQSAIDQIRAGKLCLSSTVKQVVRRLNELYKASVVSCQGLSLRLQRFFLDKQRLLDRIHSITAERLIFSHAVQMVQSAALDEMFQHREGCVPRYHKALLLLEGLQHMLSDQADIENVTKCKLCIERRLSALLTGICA

## HIC5, expressed in HEK293T cells (from UniProt O43294 1-461)
[1]
  binding: binds
[2]
  binding: binds
